Results are given in words; binding and its absence hold for the method and conditions named. Where a sequence is shown, tags or fusion partners need not be part of it.
Biological target: Escherichia coli TatD, full-length, with a C-terminal His-tag (E. coli) (UniProt P27859)
Test: SEC; gel filtration on Superdex 200 16/60 PG, pH 7.2; purified full-length TatD alone; both purified

B1: Escherichia coli TatD, full-length, with a C-terminal His-tag (enzyme, UniProt P27859 1-260)
chain: MFDIGVNLTSSQFAKDRDDVVACAFDAGVNGLLITGTNLRESQQAQKLARQYSSCWSTAGVHPHDSSQWQAATEEAIIELAAQPEVVAIGECGLDFNRNFSTPEEQERAFVAQLRIAADLNMPVFMHCRDAHERFMTLLEPWLDKLPGAVLHCFTGTREEMQACVAHGIYIGITGWVCDERRGLELRELLPLIPAEKLLIETDAPYLLPRDLTPKPSSRRNEPAHLPHILQRIAHWRGEDAAWLAATTDANVKTLFGIAF
For B1, the binding was “no binding”.
